Source: publication PMC9562647
These are yes or no findings as the source states them, for the method shown. In cells and extracts the contact can be indirect. Some entries that bind do so weakly or less than the wild type.

By UniProt entry, the sequences of proteins in these tests, tags left out. Residues count along the entry.
UniProt P40763: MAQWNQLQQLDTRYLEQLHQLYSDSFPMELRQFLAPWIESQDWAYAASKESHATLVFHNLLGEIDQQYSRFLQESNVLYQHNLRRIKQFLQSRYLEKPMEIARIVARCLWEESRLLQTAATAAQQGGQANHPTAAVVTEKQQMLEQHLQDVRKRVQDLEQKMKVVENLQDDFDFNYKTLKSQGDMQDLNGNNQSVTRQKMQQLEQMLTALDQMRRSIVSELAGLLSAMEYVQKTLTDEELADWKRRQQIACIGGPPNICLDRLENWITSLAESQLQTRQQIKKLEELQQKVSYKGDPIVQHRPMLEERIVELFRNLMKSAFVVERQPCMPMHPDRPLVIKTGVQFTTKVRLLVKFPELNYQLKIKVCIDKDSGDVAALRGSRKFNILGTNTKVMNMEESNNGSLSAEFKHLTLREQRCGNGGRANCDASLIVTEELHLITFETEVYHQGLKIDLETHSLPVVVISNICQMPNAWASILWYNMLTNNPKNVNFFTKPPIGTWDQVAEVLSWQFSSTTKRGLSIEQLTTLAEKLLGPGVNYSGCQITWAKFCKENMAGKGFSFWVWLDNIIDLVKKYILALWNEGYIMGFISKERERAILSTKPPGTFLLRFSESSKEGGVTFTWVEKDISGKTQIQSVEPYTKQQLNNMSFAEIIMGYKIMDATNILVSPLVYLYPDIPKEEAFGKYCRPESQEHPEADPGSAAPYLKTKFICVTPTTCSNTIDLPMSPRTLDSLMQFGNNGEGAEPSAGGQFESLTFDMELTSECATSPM
UniProt P16070, residues 21-742: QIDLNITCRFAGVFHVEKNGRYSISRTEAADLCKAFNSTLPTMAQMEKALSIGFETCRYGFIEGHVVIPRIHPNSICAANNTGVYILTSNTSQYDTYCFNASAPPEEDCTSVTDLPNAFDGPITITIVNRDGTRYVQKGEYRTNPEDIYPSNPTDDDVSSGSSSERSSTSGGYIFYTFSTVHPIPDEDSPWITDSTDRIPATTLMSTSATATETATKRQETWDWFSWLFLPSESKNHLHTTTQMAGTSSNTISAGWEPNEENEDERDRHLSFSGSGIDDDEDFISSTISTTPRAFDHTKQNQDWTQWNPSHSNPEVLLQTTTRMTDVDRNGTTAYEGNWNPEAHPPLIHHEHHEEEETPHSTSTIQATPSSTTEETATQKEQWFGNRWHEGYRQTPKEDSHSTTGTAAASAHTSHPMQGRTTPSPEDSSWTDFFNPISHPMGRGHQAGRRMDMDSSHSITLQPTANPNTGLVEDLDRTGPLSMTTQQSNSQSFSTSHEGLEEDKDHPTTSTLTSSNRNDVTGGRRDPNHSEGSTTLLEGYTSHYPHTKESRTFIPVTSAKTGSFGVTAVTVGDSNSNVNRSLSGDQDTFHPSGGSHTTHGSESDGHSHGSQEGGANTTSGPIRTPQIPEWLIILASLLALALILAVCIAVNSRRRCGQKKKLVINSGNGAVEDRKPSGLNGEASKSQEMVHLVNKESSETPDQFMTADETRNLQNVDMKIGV

Tests used:
[1] = target: STAT3 (human (endogenous in A549)) (UniProt P40763); test: co-IP; whole lysates of A549 cells, pre-cleared, incubated with anti-STAT3 or anti-CD44 antibody overnight at 4 °C; protein G magnetic beads; precipitate detected for CD44 or STAT3 by western blotting; isotype IgG also applied
[2] = target: CD44 (human (endogenous in A549)) (UniProt P16070); test: as above

Substance | binding [1] | binding [2]
CD44 (from UniProt P16070 21-742) (receptor) | binds | 
STAT3 (from UniProt P40763 1-770) |  | binds
